The whole screen tested about 320,000 compounds, of which about 620 (0.19%) were called active. The inconclusive results got no clear call from the source; some entries with a clear call stand among them for comparison. Cut-off read from the data, not from the text of the source: active = activation above about 80%; inconclusive = between about 30% and that limit; inactive = weaker than that.
Biological target: Transient receptor potential cation channel subfamily V member 1 (Homo sapiens) (UniProt Q8NER1)
Assay: HTS Assay for Compounds that Act as Agonists of the Vanilloid Receptor 1; note: 0% is about no effect
Conditions: TRPV1-expressing cells, Fluo-8 calcium influx, agonist mode; at 8.33 µM, hits give high values
How it was run: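 Cells expressing TRPV1 were dye-loaded with Fluo-8 and read kinetically: 10 s baseline, 3 min after compound (agonist portion), then 2 min after EC20 capsaicin (allosteric enhancer portion). Calcium-bound dye fluorescence at 480/520 nm.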

By UniProt entry, the sequences of proteins in these tests, tags left out.
UniProt Q8NER1, whole entry, looked up: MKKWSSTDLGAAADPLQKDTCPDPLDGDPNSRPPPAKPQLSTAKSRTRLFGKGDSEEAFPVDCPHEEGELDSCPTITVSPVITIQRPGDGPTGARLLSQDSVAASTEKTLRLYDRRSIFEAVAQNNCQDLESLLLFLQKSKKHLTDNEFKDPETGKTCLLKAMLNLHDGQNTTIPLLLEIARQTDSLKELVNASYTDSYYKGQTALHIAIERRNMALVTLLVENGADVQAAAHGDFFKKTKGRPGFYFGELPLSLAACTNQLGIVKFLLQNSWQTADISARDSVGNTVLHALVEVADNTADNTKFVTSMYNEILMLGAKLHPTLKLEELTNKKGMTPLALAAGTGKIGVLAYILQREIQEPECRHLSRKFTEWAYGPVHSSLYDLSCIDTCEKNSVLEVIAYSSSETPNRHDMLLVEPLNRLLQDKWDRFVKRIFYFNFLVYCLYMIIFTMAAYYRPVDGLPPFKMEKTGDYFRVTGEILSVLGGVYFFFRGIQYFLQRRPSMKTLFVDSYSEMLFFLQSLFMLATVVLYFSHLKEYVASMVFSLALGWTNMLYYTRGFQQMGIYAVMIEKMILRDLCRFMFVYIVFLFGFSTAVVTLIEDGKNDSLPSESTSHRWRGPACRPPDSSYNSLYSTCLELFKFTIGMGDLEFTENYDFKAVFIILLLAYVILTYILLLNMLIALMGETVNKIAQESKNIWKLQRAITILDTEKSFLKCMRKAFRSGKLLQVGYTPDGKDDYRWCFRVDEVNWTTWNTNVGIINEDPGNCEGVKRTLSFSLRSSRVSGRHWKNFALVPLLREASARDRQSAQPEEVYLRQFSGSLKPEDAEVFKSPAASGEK

| SMILES | activation |
| --- | --- |
| CC1CC(C)(C)NC(=S)N1CCC(=O)NCc1ccc(F)cc1 (stereo not drawn) | inactive: -0.803% |
| O=C(c1cc(-c2ccccc2Cl)nc2ccccc12)N1CCOCC1 | inconclusive: 35.8% |
| C=CCNC(=S)N/N=C/c1ccc(C)c([N+](=O)[O-])c1 | inactive: -0.282% |
| Cc1nc(N2CCN(Cc3nc4ccccc4[nH]3)CC2)c2oc3ccccc3c2n1 | inconclusive: 43.5% |
| O=C(CSc1ncc(-c2ccccc2)[nH]1)Nc1cccc(O)c1 | inactive: -1.75% |
| COc1cc(NC(=S)N2CCc3ccccc3C2)cc(OC)c1 | inconclusive: 35.8% |
| COc1cc2ccccc2cc1C(=O)Nc1ccc(C)cc1 | inconclusive: 30.5% |
| Cc1ccc2[nH]c3c(c2c1)CN(C(=O)CN1c2ccc(F)cc2CCC1C)CC3 (stereo not drawn) | inconclusive: 55.8% |
| CCS(=O)(=O)c1nc(S(=O)(=O)c2ccc(C)cc2)c(N2CC(C)CC(C)C2)s1 (stereo not drawn) | inactive: 21.6% |
| Cn1cc(C=C2C(=O)OC3(CCCCC3)OC2=O)c2ccccc21 | inconclusive: 69.3% |
| COc1cccc(/C=N/Nc2nccnc2Cl)c1O | inactive: -0.7% |
| CC1CCN(C(=O)C(C)OC(=O)CSc2ccc([N+](=O)[O-])cc2)CC1 (stereo not drawn) | inconclusive: 32.9% |
| Cc1nc2ccccc2c(=O)n1/N=C/C=C/c1ccccc1 | inconclusive: 53.9% |
| CCOC(=O)C1CCN(c2nc3ccccc3nc2C(C#N)C(=O)OC(C)C)CC1 (stereo not drawn) | inactive: 27.6% |
| Cc1ccc(OCC(=O)Nc2ccc(-n3cnnn3)cc2)c(C)c1 | inconclusive: 54.1% |
| COc1ccc(N(C)S(=O)(=O)c2cccc(C(=O)NC3CCC(C)CC3)c2)cc1 (stereo not drawn) | inactive: 11.2% |
| Cc1ccc(Sc2ccc(C(=O)NC(C)C)cc2[N+](=O)[O-])cc1 | inconclusive: 35.5% |
| COc1ccc(-n2c3c(cc(C(=O)NCC(=O)c4ccccc4)c2=O)C(=O)CC(C)(C)C3)cc1 | inconclusive: 34.1% |
| Cc1ccc(C(=O)N/C(=C\C=C\c2ccccc2)C(=O)NCc2ccco2)cc1 | inconclusive: 38.5% |
| Cc1cc(NC(=O)C(C)Oc2ccc(C(C)(C)C)cc2)no1 (stereo not drawn) | inconclusive: 54.3% |
| Clc1ccccc1/C=N/NC1=Nc2cccc3cccc1c23 | inconclusive: 32.7% |
| CCn1c2ccccc2c2cc(CNCc3ccc(OC)cc3OC)ccc21 | inactive: -3.13% |

| SMILES | activation |
| --- | --- |
| CCOC(=O)C1=C(N)OC2=C(C(=O)CC(C)(C)C2)C1c1ccc(CC)s1 (stereo not drawn) | inconclusive: 35.4% |
| CCn1c(C(C)NC(=O)c2ccc(Cl)cc2)n[nH]c1=S (stereo not drawn) | inactive: 2.21% |
| c1ccc2nc(SCc3cn4ccccc4n3)cnc2c1 | inactive: 8.02% |
| O=C(NCC1COc2ccccc2O1)c1ccccc1 (stereo not drawn) | inconclusive: 54.8% |
| Cc1onc(C(=O)NN)c1-c1csc(COc2ccccc2)n1 | inactive: 2.64% |
| NCc1cc2c3c(c1)CCCN3CCC2 | inactive: 0.626% |
| Cc1ccc(-c2nc3ccccc3o2)cc1NC(=O)c1ccc2c(c1)OCO2 | inconclusive: 31.1% |
| O=C(NCCC1CC1(Cl)Cl)Nc1ccccc1 (stereo not drawn) | inconclusive: 55.3% |
| Cc1csc(NC(=O)C2CCCN(S(=O)(=O)c3ccc(Br)s3)C2)n1 (stereo not drawn) | inconclusive: 33.5% |
| Cc1cccc(-n2ncc3c2CCCC3NC(=O)CC(F)(F)F)c1C (stereo not drawn) | inconclusive: 33.8% |
| COc1ccc(-n2c(C)cc(C(=O)COC(=O)c3ccc(O)cc3O)c2C)cc1 | inconclusive: 34.2% |
| COc1ccc(CCC(=O)N/N=C\c2cccs2)cc1 | inconclusive: 33.7% |
| CC(C)c1ccc(C(=O)NC2=NCCS2)cc1 | inconclusive: 39.3% |
| CCC(=O)N1CCN(c2ccc(NC(=O)COc3ccccc3Cl)cc2)CC1 | inactive: 3.38% |
| O=[N+]([O-])c1cccc(N=Cc2sc3ccccc3c2O)c1 | inactive: -3.67% |
| C/C(=N\NC(=O)c1cccc(S(=O)(=O)N2CCOCC2)c1)c1ccc(OC(F)F)cc1 | inconclusive: 38.7% |
| C=C(C)[C@@H]1CC[C@]2(C(=O)O)CC[C@]3(C)C(CCC4[C@@]5(C)CC[C@H](O)C(C)(C)C5CC[C@]43C)C12 (stereo partly drawn) | inactive: 0.604% |
| COc1ccc(/C(N)=N/OC(=O)Cc2cccs2)cc1OC | inconclusive: 40.6% |
| O=C(Nc1cc(S(=O)(=O)N2CCCCC2)ccc1N1CCCCC1)c1ccncc1 | inconclusive: 32.4% |
| Cc1ccc(CSCCNC(=O)CCSc2ccccc2)cc1 | inconclusive: 59.1% |
| CC(C)NC(=O)c1ccc2c(c1)N(Cc1ccccc1)C(=O)C(C)(C)O2 | inconclusive: 58.7% |
| O=C(CCCOc1ccccc1)N1CCN(c2ccc(F)cc2)CC1 | inconclusive: 37.8% |

At a glance, part of the list above.

| SMILES | activation |
| --- | --- |
| CCOC(=O)C1=C(N)OC2=C(C(=O)CC(C)(C)C2)C1c1ccc(CC)s1 (stereo not drawn) | inconclusive: 35.4% |
| CCn1c(C(C)NC(=O)c2ccc(Cl)cc2)n[nH]c1=S (stereo not drawn) | inactive: 2.21% |
| c1ccc2nc(SCc3cn4ccccc4n3)cnc2c1 | inactive: 8.02% |

Continued:

| SMILES | activation |
| --- | --- |
| O=C(N/N=C/c1ccncc1)c1ccc(-n2cccc2)cc1 | inconclusive: 73.1% |
| CCc1nc(N2CCN(C(=O)CCl)CC2)c2c3c(sc2n1)CC(C)CC3 (stereo not drawn) | inconclusive: 45.3% |
| CSc1cccc(NC(=O)Cc2ccccc2[N+](=O)[O-])c1 | inconclusive: 56.8% |
| COc1ccc(CNC(=O)[C@@H](NC(=O)C2CCN(S(=O)(=O)c3ccc(C)cc3)CC2)C(C)C)cc1OC | inactive: -1.14% |
| COc1ccc(S(=O)(=O)N2CCN(c3ccc4nnc(-c5ccccc5)n4n3)CC2)cc1 | inactive: 0.81% |
| CCN(CC)C(=O)Cn1cc(C(=O)C(=O)NCc2cccs2)c2ccccc21 | inconclusive: 53.2% |
| O=S(=O)(c1cccc(F)c1)N1CCN(C(=S)NCc2ccccc2)CC1 | inconclusive: 56.1% |
| O=C(COC(=O)Cc1ccsc1)Nc1ccc(Cl)c(S(=O)(=O)N2CCOCC2)c1 | inconclusive: 45.2% |
| Cc1cc(NC(=O)CCCN2C(=O)/C(=C\c3cccs3)SC2=S)no1 | inactive: 6.77% |
| O=C(CNc1cccc(F)c1)N1CCc2ccccc2C1 | inconclusive: 71% |
| COc1ccc(C2c3c(oc4ccc(Cl)cc4c3=O)C(=O)N2Cc2ccco2)cc1OC (stereo not drawn) | inactive: 6.96% |
| Cc1cc(C(=O)Nc2ccc(N3CCOCC3)c(Cl)c2)c(C)o1 | inconclusive: 30.6% |
| Cc1ccc(CS/C(Nc2ccccc2C)=C(\C#N)C(N)=O)c(C)c1 | inconclusive: 55.8% |
| Cc1ccc(C)n1-n1c(C)nc2scc(-c3cccs3)c2c1=O | inconclusive: 40.3% |
| CCCCCCCCCS(=O)(=O)Nc1cc(C)ccn1 | inconclusive: 31.4% |
| CC(Sc1nc2ncc(Cl)cc2[nH]1)C(=O)Nc1ccc(C(N)=O)cc1 (stereo not drawn) | inactive: 2.37% |
| CC(=O)CSc1nsc(SCC(C)=O)c1C#N | inactive: -4.4% |
| Cc1ccc(S(=O)(=O)N2CCN(CC(O)CN3CCOCC3)CC2)cc1 (stereo not drawn) | inactive: 2.3% |
| COC(=O)c1cc(S(=O)(=O)NCC2CCN(Cc3ccccc3F)CC2)c[nH]1 | inactive: -1.55% |
| Cc1nn(-c2ccccc2)c(Cl)c1C(=O)Nc1ccccc1 | inconclusive: 61.4% |
| CCOC(=O)C1(Cc2ccccc2C)CCCN(C(=O)c2cc(C3CC3)[nH]n2)C1 (stereo not drawn) | inactive: 19.7% |
| Oc1ccccc1C1=NN(c2ccccc2)C(c2ccccc2)C1 (stereo not drawn) | inconclusive: 44.4% |

| SMILES | activation |
| --- | --- |
| Cc1cc(Cl)ccc1C(=O)C1CCCN(C(=O)c2cnn(C(C)C)c2)C1 (stereo not drawn) | inconclusive: 35.5% |
| COc1ccc(OC)c(-c2nn(-c3ccccc3)cc2C(=O)N2CCc3ccccc3C2)c1 | inconclusive: 32.4% |
| CCOC(=O)c1[nH]c(C)c(C(=O)NCCC2=CCCCC2)c1C | inconclusive: 30.4% |
| O=C(CCn1c(=O)c2cccn2c2ccccc21)Nc1ccc(F)cc1 | inconclusive: 50.2% |
| CCN(CC)S(=O)(=O)c1ccc(NC2CCN(Cc3ccccc3)CC2)nc1 | inactive: 3.11% |
| CCn1c(C)nc2cc(C(=O)NNS(=O)(=O)c3ccccc3F)ccc21 | inactive: -4.74% |
| O=C(O)C1CCN(C(=O)c2ccccc2N2C(=O)[C@@H]3Cc4c([nH]c5ccccc45)C(c4cccc(Cl)c4)N3C2=O)CC1 (stereo partly drawn) | inactive: 1.32% |
| Cc1ccc(C)c(CN2C(=O)c3ccccc3S(=O)c3ccc(C(=O)N4CCN(c5ccccn5)CC4)cc32)c1 (stereo not drawn) | inactive: 13% |
| O=C(N/N=C/c1ccc([N+](=O)[O-])o1)c1cc(-c2ccc(-c3ccccc3)cc2)nc2ccccc12 | inactive: -8.91% |
| CCN(CC)C(=O)c1cc(C(C)(C)C)c(O)c(C(C)(C)C)c1 | inconclusive: 70.8% |
| COc1ccc(OC)c(NC(=O)CCN2CC(C)OC(C)C2)c1 (stereo not drawn) | inactive: -3.24% |
| CC1CC(C)(C)CC2(C1)NC(=O)N(CC(=O)Nc1cc([N+](=O)[O-])ccc1F)C2=O (stereo not drawn) | inactive: 13% |
| CCc1ccc(NC(=O)c2ccccc2Br)cc1 | inconclusive: 56.6% |
| Cc1ccc(NC(=O)NCCCCc2ccccc2)cc1 | inconclusive: 62.1% |
| COc1cccc(NC(=O)N2CCN(c3nc(-c4cccc(OC)c4)cs3)CC2)c1 | inconclusive: 51.8% |
| Cc1nnsc1C(=O)Nc1ccc(S(=O)(=O)N2CCCCC2)cc1 | inactive: 24.7% |
| O=C(Nc1ccccc1N1CCCCC1)C1CCN(S(=O)(=O)c2cccc(C(F)(F)F)c2)CC1 | inconclusive: 35.4% |
| O=C(NCCN1CCOCC1)c1ccc2c(c1)N(Cc1ccc(Cl)cc1)CCS2 | inconclusive: 52.7% |
| CC1(C)Cc2nc3scc(NC(=O)c4ccccc4)c3cc2CO1 | inconclusive: 39% |
| COc1cccc(NC(=O)C2CCCN(c3ncnc4c3nc3n4CCCCC3)C2)c1 (stereo not drawn) | inconclusive: 30.8% |
| Cc1ccc(CN2C3CCCC2CC(NC(=O)c2ccc(F)cc2)C3)cc1 (stereo not drawn) | inactive: 25.5% |
| Cn1c(=O)n(Cc2ccc(F)cc2)c(=O)c2c1nc1n2CCCN1C1CCCCC1 | inconclusive: 71.3% |

Grouped by structure, the compounds so far with a tert-butyl group

| SMILES | activation |
| --- | --- |
| Cc1cc(NC(=O)C(C)Oc2ccc(C(C)(C)C)cc2)no1 (stereo not drawn) | inconclusive: 54.3% |
| CCN(CC)C(=O)c1cc(C(C)(C)C)c(O)c(C(C)(C)C)c1 | inconclusive: 70.8% |

From PubChem BioAssay AID540275 (National Center for Advancing Translational Sciences (NCATS), 2011)
